Measurements as given in patent US10118947B2, “Modulation of structured polypeptide specificity” (BICYCLE THERAPEUTICS LIMITED, priority 2013, dated 2018).
Not every detail of the peptide structures is certain; ends, links or a residue may be inferred. For at least one compound, name, drawing or mass did not settle the structure. Numbered stars: 1 amine (or outer) side, 2 acyl side, 3 side chain; on linkers, the order of the positions; unused ones are H or OH. Bridge positions count the residues as written; N and C are the ends. Square brackets hold non-standard residues; d marks the D form. Peptide text beside a SMILES is read from it. Gly(N-CH2CH2-imidazol-4-yl) = O=C(O)CNCCc1c[nH]cn1; Ala(2-furyl) = N[C@@H](Cc1ccco1)C(=O)O; TBMB = c1c(C[*:1])cc(C[*:3])cc1C[*:2]

The chains behind the UniProt entries cited, without tags or fusion partners. Residues count along the entry.
UniProt P03952, 20-638: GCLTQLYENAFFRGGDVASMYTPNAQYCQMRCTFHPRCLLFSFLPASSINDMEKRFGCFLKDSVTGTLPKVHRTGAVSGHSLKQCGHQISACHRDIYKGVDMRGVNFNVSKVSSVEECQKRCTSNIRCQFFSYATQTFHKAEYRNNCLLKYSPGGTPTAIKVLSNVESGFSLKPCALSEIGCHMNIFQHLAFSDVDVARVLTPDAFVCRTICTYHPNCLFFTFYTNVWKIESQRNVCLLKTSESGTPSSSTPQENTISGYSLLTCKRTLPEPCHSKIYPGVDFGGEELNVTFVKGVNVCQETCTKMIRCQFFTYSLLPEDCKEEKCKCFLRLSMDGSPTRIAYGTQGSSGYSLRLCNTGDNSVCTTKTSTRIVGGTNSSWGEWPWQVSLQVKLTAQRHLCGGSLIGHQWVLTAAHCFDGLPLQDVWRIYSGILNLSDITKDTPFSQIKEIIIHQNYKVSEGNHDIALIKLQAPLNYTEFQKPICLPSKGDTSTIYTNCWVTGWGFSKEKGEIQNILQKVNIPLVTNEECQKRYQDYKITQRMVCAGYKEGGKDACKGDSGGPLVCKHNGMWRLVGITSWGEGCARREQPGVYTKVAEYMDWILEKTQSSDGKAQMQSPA

Target: T1, human plasma Kallikrein (Homo sapiens, UniProt P03952)
T1 construct: purchased Stratech, UK
Assay: Functional enzyme inhibition assay with fluorogenic substrate Z-PheArg-AMC, human plasma Kallikrein
Assay type: biochemical
Experimental: Functional enzyme assays were conducted in 10 mM Tris HCl, 150 mM NaCl, 10 mM MgCl2, 1 mM CaCl2) and 1 mg/mL BSA (all Sigma UK) pH7.4 at 25° C. in solid black 96 well plates. Briefly 26.5 pM human plasma Kallikrein (purchased from Stratech, UK) or 500 pM rat plasma Kallikrein (expressed and purified in house) were incubated in the absence or presence of increasing concentrations of test peptide for 15 minutes before addition of the fluorogenic substrate Z-PheArg-AMC (Enzo Lifesciences UK) to a final assay concentration of 100 μM in 4% DMSO. Release of AMC was measured using a Pherastar FS (BMG Labtech), excitation 360 nm, emission 460 nm. The rate of the linear phase of the reaction, typically 5 to 45 minutes, was calculated in MARS data analysis software (BMG labtech). The rate was then used to calculate the IC50 and Ki in Prism (GraphPad). A four parameter inhibition non-linear regression equation was used to calculate the IC50.
Peptides were dissolved as the TFA-salts in their powder form, and stock solutions were usually prepared in water. […] For peptides containing non-natural amino acids with suspected chromophoric properties (i.e. NorHar, 4PhenylPro, 3Pal, 4Pal, Tic, 4GuanPhe, 4,4-BPAI, 3,3-DPA, 1NAI, 2NAI, 4BenzylPro, Ind) concentrations were determined by weighing the powder and dissolving the peptide in a defined quantity of water.

Structure (SMILES): CC(=O)N[C@H]1CSCc2cc3cc(c2)CSC[C@H](NC(=O)[C@H](CCCNC(=N)N)NC(=O)[C@H](Cc2ccc(O)cc2)NC(=O)[C@@H]2CCCN2C(=O)[C@H](Cc2ccccc2)NC(=O)[C@H](CO)NC1=O)C(=O)N[C@@H](CC(C)C)C(=O)N(CCc1c[nH]cn1)CC(=O)N[C@@H](CCC(N)=O)C(=O)N[C@@H](CC(=O)O)C(=O)N[C@@H](CC(C)C)C(=O)N[C@H](C(N)=O)CSC3 [Ac-(06-34-18) Phe2 Tyr4 N-His] (Ac-CSFPYRCL[Gly(N-CH2CH2-imidazol-4-yl)]QDLC-NH2; linker 1-7-13 via TBMB)
- potency / binding to kallikrein (in words): strongly reduced binding

Structure (SMILES): CC(=O)N[C@H]1CSCc2cc3cc(c2)CSC[C@H](NC(=O)[C@H](CCCNC(=N)N)NC(=O)[C@H](Cc2ccc(O)cc2)NC(=O)[C@@H]2CCCN2C(=O)[C@H](Cc2ccccc2)NC(=O)[C@H](CO)NC1=O)C(=O)N[C@@H](CC(C)C)C(=O)N[C@@H](Cc1ccco1)C(=O)N[C@@H](CCC(N)=O)C(=O)N[C@@H](CC(=O)O)C(=O)N[C@@H](CC(C)C)C(=O)N[C@H](C(N)=O)CSC3 [Ac-(06-34-18) Phe2 Tyr4 4FuAla7] (Ac-CSFPYRCL[Ala(2-furyl)]QDLC-NH2; linker 1-7-13 via TBMB)
- Ki (Table 24b, residue 7 modifications): 17 nM
